According to publication PMC8576004:
Substitutions are numbered along the chain they refer to. Names may count otherwise. Results are given in words; binding and its absence hold for the method and conditions named. For some assays here: In cells and extracts the contact can be indirect. Some binding calls cover weakened binding; strength is not graded here. For some assays here: Sequences can lack the tags named with a protein. Each block holds one binder with its values, some of them ahead of it.

Assays:
[1] = target: FRIP8 with deletion of Ser^718 (ΔS718) (human) (UniProt P40818); assay: FRET or BRET; single-molecule FRET probes in cell lysates: EYFP on the WW-like domain and ECFP inside the USP domain of ONE chain; excitation 433 nm, emission 460-570 nm; trypsinised lysate as negative control; FRET ratio EYFP/ECFP; the paper speculates that the interaction is intramolecular; 100 μM R18 reduced the FRET signal of FRIP8
[2] = target: T1, GST-tagged USP domain (aa 756–1118) of USP8 (human) (UniProt P40818); assay: pull-down; HEK293T lysates with the myc-tagged prey incubated with 5 μM GST-tagged USP domain at 4 °C for 2 h, then glutathione sepharose 4B 90 min; washed five times with lysis buffer (50 mM Tris-HCl pH 7.4, 150 mM NaCl, 50 mM NaF, 1% Triton X-100); immunoblotting; only the target purified
T1 sequence: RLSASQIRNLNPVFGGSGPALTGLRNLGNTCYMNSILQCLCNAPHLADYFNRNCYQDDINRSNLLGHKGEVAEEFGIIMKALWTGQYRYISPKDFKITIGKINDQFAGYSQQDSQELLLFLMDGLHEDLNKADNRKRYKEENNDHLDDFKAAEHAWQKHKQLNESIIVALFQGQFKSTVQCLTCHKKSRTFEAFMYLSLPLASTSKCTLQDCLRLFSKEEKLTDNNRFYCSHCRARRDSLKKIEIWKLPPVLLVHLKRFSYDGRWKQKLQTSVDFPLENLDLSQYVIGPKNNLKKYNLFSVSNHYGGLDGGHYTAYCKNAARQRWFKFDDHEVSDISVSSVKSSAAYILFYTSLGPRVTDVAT

FRIP8^P955A (human) = FRIP8^P955A (human) (UniProt P40818); assay: FRET or BRET; single-molecule FRET probes in cell lysates: EYFP on the WW-like domain and ECFP inside the USP domain of ONE chain; excitation 433 nm, emission 460-570 nm; trypsinised lysate as negative control; FRET ratio EYFP/ECFP; the paper speculates that the interaction is intramolecular; 100 μM R18 reduced the FRET signal of FRIP8
FRIP8^L1063A (human) = FRIP8^L1063A (human) (UniProt P40818); assay: as above
His-tagged FRIP8 (human) = His-tagged FRIP8 (human) (UniProt P40818); assay: FRET or BRET; purified His-tagged FRIP8, with or without labelling by 1 μM Ub-VME (TBS, 1 mM DTT, 37 °C, 30 min); FRET between the WW-like and USP domains of one chain; both purified
[3] = target: FRET-based intramolecular interaction probe of USP8 (FRIP8) (human) (UniProt P40818); assay: FRET or BRET; single-molecule FRET probes in cell lysates: EYFP on the WW-like domain and ECFP inside the USP domain of ONE chain; excitation 433 nm, emission 460-570 nm; trypsinised lysate as negative control; FRET ratio EYFP/ECFP; the paper speculates that the interaction is intramolecular; 100 μM R18 reduced the FRET signal of FRIP8

- binding [1]: binds
B1: FRIP8 with deletion of Ser^718 (ΔS718) (domain or fragment, UniProt P40818 645-1118)
chain: GRIVPGLPSGWAKFLDPITGTFRYYHSPTNTVHMYPPEMAPSSAPPSTPPTHKAKPQIPAERDREPSKLKRSYSPDITQAIQEEEKRKPTVTPTVNRENKPTCYPKAEISRLSASQIRNLNPVFGGSGPALTGLRNLGNTCYMNSILQCLCNAPHLADYFNRNCYQDDINRSNLLGHKGEVAEEFGIIMKALWTGQYRYISPKDFKITIGKINDQFAGYSQQDSQELLLFLMDGLHEDLNKADNRKRYKEENNDHLDDFKAAEHAWQKHKQLNESIIVALFQGQFKSTVQCLTCHKKSRTFEAFMYLSLPLASTSKCTLQDCLRLFSKEEKLTDNNRFYCSHCRARRDSLKKIEIWKLPPVLLVHLKRFSYDGRWKQKLQTSVDFPLENLDLSQYVIGPKNNLKKYNLFSVSNHYGGLDGGHYTAYCKNAARQRWFKFDDHEVSDISVSSVKSSAAYILFYTSLGPRVTDVAT

B2: myc-tagged USP8^1–714 with deletion of the WW-like domain (aa 645–684) (domain or fragment, UniProt P40818)
chain: MPAVASVPKELYLSSSLKDLNKKTEVKPEKISTKSYVHSALKIFKTAEECRLDRDEERAYVLYMKYVTVYNLIKKRPDFKQQQDYFHSILGPGNIKKAVEEAERLSESLKLRYEEAEVRKKLEEKDRQEEAQRLQQKRQETGREDGGTLAKGSLENVLDSKDKTQKSNGEKNEKCETKEKGAITAKELYTMMTDKNISLIIMDARRMQDYQDSCILHSLSVPEEAISPGVTASWIEAHLPDDSKDTWKKRGNVEYVVLLDWFSSAKDLQIGTTLRSLKDALFKWESKTVLRNEPLVLEGGYENWLLCYPQYTTNAKVTPPPRRQNEEVSISLDFTYPSLEESIPSKPAAQTPPASIEVDENIELISGQNERMGPLNISTPVEPVAASKSDVSPIIQPVPSIKNVPQIDRTKKPAVKLPEEHRIKSESTNHEQQSPQSGKVIPDRSTKPVVFSPTLMLTDEEKARIHAETALLMEKNKQEKELRERQQEEQKEKLRKEEQEQKAKKKQEAEENEITEKQQKAKEEMEKKESEQAKKEDKETSAKRGKEITGVKRQSKSEHETSDAKKSVEDRGKRCPTPEIQKKSTGDVPHTSVTGDSGSGKPFKIKGQPESGILRTGTFREDTDDTERNKAQREPLTRARSEEMPSSAPPSTPPTHKAKPQIPAERDREPSKLK
- binding [2]: no binding (tested: 5 μM GST-tagged USP domain)

- binding [2]: binds
B3: myc-tagged USP8^1–714 (WT) (domain or fragment, UniProt P40818 1-714)
chain: MPAVASVPKELYLSSSLKDLNKKTEVKPEKISTKSYVHSALKIFKTAEECRLDRDEERAYVLYMKYVTVYNLIKKRPDFKQQQDYFHSILGPGNIKKAVEEAERLSESLKLRYEEAEVRKKLEEKDRQEEAQRLQQKRQETGREDGGTLAKGSLENVLDSKDKTQKSNGEKNEKCETKEKGAITAKELYTMMTDKNISLIIMDARRMQDYQDSCILHSLSVPEEAISPGVTASWIEAHLPDDSKDTWKKRGNVEYVVLLDWFSSAKDLQIGTTLRSLKDALFKWESKTVLRNEPLVLEGGYENWLLCYPQYTTNAKVTPPPRRQNEEVSISLDFTYPSLEESIPSKPAAQTPPASIEVDENIELISGQNERMGPLNISTPVEPVAASKSDVSPIIQPVPSIKNVPQIDRTKKPAVKLPEEHRIKSESTNHEQQSPQSGKVIPDRSTKPVVFSPTLMLTDEEKARIHAETALLMEKNKQEKELRERQQEEQKEKLRKEEQEQKAKKKQEAEENEITEKQQKAKEEMEKKESEQAKKEDKETSAKRGKEITGVKRQSKSEHETSDAKKSVEDRGKRCPTPEIQKKSTGDVPHTSVTGDSGSGKPFKIKGQPESGILRTGTFREDTDDTERNKAQREPLTRARSEEMGRIVPGLPSGWAKFLDPITGTFRYYHSPTNTVHMYPPEMAPSSAPPSTPPTHKAKPQIPAERDREPSKLK

B4: myc-tagged USP8^1–714 W655S (domain or fragment, UniProt P40818 1-714)
chain: B3 chain with W655S
- binding [2]: no binding (tested: 5 μM GST-tagged USP domain)

- binding (FRIP8^P955A (human)): binds
B5: FRIP8^P955A (domain or fragment, UniProt P40818 645-1118)
chain: GRIVPGLPSGWAKFLDPITGTFRYYHSPTNTVHMYPPEMAPSSAPPSTPPTHKAKPQIPAERDREPSKLKRSYSSPDITQAIQEEEKRKPTVTPTVNRENKPTCYPKAEISRLSASQIRNLNPVFGGSGPALTGLRNLGNTCYMNSILQCLCNAPHLADYFNRNCYQDDINRSNLLGHKGEVAEEFGIIMKALWTGQYRYISPKDFKITIGKINDQFAGYSQQDSQELLLFLMDGLHEDLNKADNRKRYKEENNDHLDDFKAAEHAWQKHKQLNESIIVALFQGQFKSTVQCLTCHKKSRTFEAFMYLSLALASTSKCTLQDCLRLFSKEEKLTDNNRFYCSHCRARRDSLKKIEIWKLPPVLLVHLKRFSYDGRWKQKLQTSVDFPLENLDLSQYVIGPKNNLKKYNLFSVSNHYGGLDGGHYTAYCKNAARQRWFKFDDHEVSDISVSSVKSSAAYILFYTSLGPRVTDVAT

- binding (FRIP8^L1063A (human)): binds
B6: FRIP8^L1063A (domain or fragment, UniProt P40818 645-1118)
chain: B5 chain with A311P, L419A

- binding (His-tagged FRIP8 (human)): binds
B7: His-tagged FRIP8 (domain or fragment, UniProt P40818 645-1118)
chain: B5 chain with A311P

- binding [3]: binds
B8: FRET-based intramolecular interaction probe of USP8 (FRIP8) (domain or fragment, UniProt P40818 645-1118)
chain: B5 chain with A311P
